The other results are listed elsewhere or left out. Bounds are passed on as bounds.

In general, apparent Kd refers to the concentration giving half-maximal binding under the conditions of the assay.

First the molecules themselves.
B1: il2ra_site1_1z92_sap_26_mot_HHH_b1_02756_000000071_0001_20_37_H_._HHH_b1_08606_af2_0001_0000100004_0000001_0_0001 (protein)
chain: SSSSDQAREFLERLARSLVKNLELTGDPRARERLEMLLRDAEMNGDEEVVEFAREQLEELSSSSS
B2: il2ra_site1_2b5i_normal_mot_HHH_b1_01949_af2_000000041_0001_1_19_H_._HHH_b1_01257_af2_0001_0000300039_0000001_0 (protein)
chain: SSSSDEEEVQELFRRASELFRNGNPEEAEKVLREALELAEELNDENSERDLRFMLEQIRGSSSSS
B3: il2ra_site1_1z92_normal_mot_HHH_b2_06478_af2_000000093_0001_42_55_H_._707acc9d051fe3a4acad5ad22db0e630_0001_1_af2_0001_0000300018_0000001_0_af2pred_0001_af2pred … (protein)
chain: TEEDLEITREFAGGDPEKILKVLERAARDAGLLSPEELKRLEEEIREAIEKNDPRVEELLKELAN
B4: il2ra_site2_2erj_sap_23_mot_c2bf78bdce995293a161f7082e24b401_0001_000000177_0001_37_51_H_._b683b9da3abebe05867c2ae609ec11aa_0001_1_0001_0000300012_0000001_0_000 … (protein)
chain: SSSSSEVEEEVERLLEEARKIPDEEEAWKVVAEAAFLAARNNDDELLKEIMEIAQELLSKSSSSS
B5: il2ra_site1_1z92_normal_mot_934a834d9b8b770824478def2ff2f329_0001_af2_000000088_0001_15_30_H_._62303bca1dd225ec3edff4317a74685f_0001_af2_0001_0000400021_0000001 … (protein)
chain: SLLEELEELLKKLNTPAARALIRLLRRAIEEGQLDPEIILRDLHRAAEFLNDPEVVEVIEEILRK
B6: il2ra_site1_3nfp_normal_mot_e80b558ee5422d85aa46efdc370d0602_0001_af2_000000114_0001_54_65_H_._HEEHE_2247_0002_0000400019_0000001_0_af2pred_0001_af2pred (protein)
chain: DRQEILQEDAELISKVAGVTSVHVEVENGHVTVTVEADNRRARALLRILREAAKIAGLEVEITIE
B7: il2ra_site1_2b5i_sap_11_mot_HHH_b1_05017_af2_000000115_0001_1_18_H_._HHH_b1_00710_af2_0001_0000500014_0000001_0_0001 (protein)
chain: SSSSDEIDEKVQELFREASELWRNGNPEEAEKVVEEALRIAEEGGDENLVRQLRRMLEFLRSSSS
B8: il2ra_site1_1z92_sap_11_mot_HHH_b1_00499_000000281_0001_1_17_H_._HHH_b1_06817_af2_0001_0000300040_0000001_0_0001 (protein)
chain: SSSSDRAREWAEKLARAALRLLKLTGNPRIRERIEMLLRDLRMNGNPEAVEEIEKILEELRSSSS
B9: il2ra_site1_2b5i_normal_mot_0e5a94e4a5addaac739760efb25f0f5d_0001_000000289_0001_18_32_H_._78af2605e42daec4205f2e2222766fb7_0001_af2_0001_0000300010_0000001_1_a … (protein)
chain: SLEKEIEDLANEIEDRELRTLVVDILYRISLLPDPEERERLLEELLEALKSNDRERLEELRERAK
B10: il2ra_site1_1z92_sap_17_mot_0152819cca26c81f8eead0111e16a660_0001_000000247_0001_36_50_H_._HHH_b1_04373_0001_0000400037_0000001_0_0001_af2pred_0001_af2pred (protein)
chain: SSSSSSDEEIEEIVKELVERFNLSEEEEKILERDAKQALEQGFSEKSIKRALRAAAERLSSSSSS
B11: il2ra_site2_3nfp_normal_mot_HHH_b1_06589_000000230_0001_37_50_H_._HHH_b1_08566_0001_0000300024_0000001_0_af2pred_0001_1_af2pred_swapped (protein)
chain: SSSSDEEEEEIRELIEEARKLLENGNPEEAKKVLEKASRLAIELGDAELFAEIAELLLKVLSSSS
B12: il2ra_site1_3nfp_sap_16_mot_06fb79ff5b0635ea054e4773f75fe636_0001_af2_000000209_0001_53_63_H_._HEEHE_0001_0001_0000200015_0000001_0_0001 (protein)
chain: DQEEIVARFIHHAVKQNSPTLLRKVLEDFERWAGDPEEAKRLFEEYLEEAGLSPEEIERAKELVE
B13: il2ra_site1_2b5i_sap_23_mot_0e5a94e4a5addaac739760efb25f0f5d_0001_000000208_0001_18_32_H_._ems_3hC_1310_0001_0001_0000100003_0000001_0_0001 (protein)
chain: SSSSSEAHERAAEIVDELAEEFGLDSEELNALVRLATRLIWRGVSPEEIEEILEEFARQLSSSSS
B14: il2ra_site1_3nfp_normal_mot_HHH_b1_02721_af2_000000134_0001_39_56_H_._HHH_b2_00677_af2_0001_0000100009_0000001_0 (protein)
chain: SSSSSDTEEAFQLDRELLEALRKGDEELIEELLRELEELAKELNDELAERLVEQFKELLKSSSSS
B15: il2ra_site2_3nfp_sap_17_mot_HHH_b2_00232_000000252_0001_23_39_H_._3c441df7748365c26d0f48519610b406_0001_0001_0000300033_0000001_0_0001 (protein)
chain: SSSSSSTFLFEVVRELAEELGLSEEQLHELVQLAAELSRRGVSLEEIEEILEEVARKLSSSSSSS
B16: il2ra_site1_2b5i_normal_mot_HHH_b2_01684_af2_000000128_0001_1_17_H_._6f78d487b2114cba39c339ce838aa349_0001_1_af2_0001_0000500025_0000001_0_af2pred_dldesign_0_af … (protein)
chain: SEEEELRALAEAAARGDKAALKKLSEIARKADEDPEYREKLERMIEILDELGQPKLAALLRRGLE
B17: il2ra_site2_2erj_sap_18_mot_HHH_b2_00732_af2_000000006_0001_23_40_H_._HHH_b2_05171_af2_0001_0000300019_0000001_0_0001 (protein)
chain: SSSSSLHELYELANRLMHLVHNNDEEEFEELLREAQELAEKFGSDVVKEILERLKELIKGSSSSS
B18: il2ra_site2_3nfp_normal_mot_HHH_b1_06589_000000230_0001_37_50_H_._HHH_b1_07348_af2_0001_0000500014_0000001_0 (protein)
chain: SSSSSDEERERAEELLEEAKQISDPEEFEEVIAEALRLAIEAGDAELYMAIAELSFEFRSSSSSS
B19: il2ra_site1_3nfp_normal_mot_HHH_b2_06725_000000083_0001_1_20_H_._HHH_b2_03844_0001_0000700022_0000001_1_af2pred_0001_af2pred (protein)
chain: SSSSSTSASEKVLRLLEEALHVEDPKEFEELIEEAEELAEENNNPTLERTIEAAHKLHSQSSSSS

This test deals with il2ra, P01589. Nature of the test: yeast display titration.
Turning to B1, the “apparent Kd” value was “inactive: no binding seen”. Take B2: the “apparent Kd” value was “inactive: no binding seen”. For B3, the “apparent Kd” value was “inactive: no binding seen”. As to B4, the “apparent Kd” value is “inactive: no binding seen”. Regarding B5, the “apparent Kd” value is “inactive: no binding seen”. For B6 the value was “inactive: no binding seen”; for B7, “inactive: no binding seen”. With B8, the “apparent Kd” value was “inactive: no binding seen”. In the case of B9, the “apparent Kd” value is “inactive: no binding seen”. Take B10: the “apparent Kd” value was “inactive: no binding seen”. Regarding B11, the “apparent Kd” value is “inactive: no binding seen”. With B12 the entry was “inactive: no binding seen”; with B13, “inactive: no binding seen”. With B14 the figure was inactive: > 802 nM.

B15: the “apparent Kd” value is “inactive: no binding seen”. For the molecule B16, the “apparent Kd” value is “inactive: no binding seen”. As to B17, the “apparent Kd” value was “inactive: no binding seen”. For B18 the value was “inactive: no binding seen”. Consider B19, for which the “apparent Kd” value was “inactive: no binding seen”.

Values taken from paper PMC10163288.
